Source: publication doi:10.1101/2025.05.07.652780
No constants are given. Whether binding was seen depends on the method and setting. Binding seen in cells or lysates may run through a third protein. Some binding calls cover weakened binding; strength is not graded here.

The chains behind the UniProt entries cited, without tags or fusion partners. Where a name states a change or a piece, a line headed by the entry shows the natural chain unless it says otherwise. A line that says so, or that is headed by a name, gives the form on record, which may keep a tag or linker.
HBH-ΔF508-CFTR-3HA (P13569, form named): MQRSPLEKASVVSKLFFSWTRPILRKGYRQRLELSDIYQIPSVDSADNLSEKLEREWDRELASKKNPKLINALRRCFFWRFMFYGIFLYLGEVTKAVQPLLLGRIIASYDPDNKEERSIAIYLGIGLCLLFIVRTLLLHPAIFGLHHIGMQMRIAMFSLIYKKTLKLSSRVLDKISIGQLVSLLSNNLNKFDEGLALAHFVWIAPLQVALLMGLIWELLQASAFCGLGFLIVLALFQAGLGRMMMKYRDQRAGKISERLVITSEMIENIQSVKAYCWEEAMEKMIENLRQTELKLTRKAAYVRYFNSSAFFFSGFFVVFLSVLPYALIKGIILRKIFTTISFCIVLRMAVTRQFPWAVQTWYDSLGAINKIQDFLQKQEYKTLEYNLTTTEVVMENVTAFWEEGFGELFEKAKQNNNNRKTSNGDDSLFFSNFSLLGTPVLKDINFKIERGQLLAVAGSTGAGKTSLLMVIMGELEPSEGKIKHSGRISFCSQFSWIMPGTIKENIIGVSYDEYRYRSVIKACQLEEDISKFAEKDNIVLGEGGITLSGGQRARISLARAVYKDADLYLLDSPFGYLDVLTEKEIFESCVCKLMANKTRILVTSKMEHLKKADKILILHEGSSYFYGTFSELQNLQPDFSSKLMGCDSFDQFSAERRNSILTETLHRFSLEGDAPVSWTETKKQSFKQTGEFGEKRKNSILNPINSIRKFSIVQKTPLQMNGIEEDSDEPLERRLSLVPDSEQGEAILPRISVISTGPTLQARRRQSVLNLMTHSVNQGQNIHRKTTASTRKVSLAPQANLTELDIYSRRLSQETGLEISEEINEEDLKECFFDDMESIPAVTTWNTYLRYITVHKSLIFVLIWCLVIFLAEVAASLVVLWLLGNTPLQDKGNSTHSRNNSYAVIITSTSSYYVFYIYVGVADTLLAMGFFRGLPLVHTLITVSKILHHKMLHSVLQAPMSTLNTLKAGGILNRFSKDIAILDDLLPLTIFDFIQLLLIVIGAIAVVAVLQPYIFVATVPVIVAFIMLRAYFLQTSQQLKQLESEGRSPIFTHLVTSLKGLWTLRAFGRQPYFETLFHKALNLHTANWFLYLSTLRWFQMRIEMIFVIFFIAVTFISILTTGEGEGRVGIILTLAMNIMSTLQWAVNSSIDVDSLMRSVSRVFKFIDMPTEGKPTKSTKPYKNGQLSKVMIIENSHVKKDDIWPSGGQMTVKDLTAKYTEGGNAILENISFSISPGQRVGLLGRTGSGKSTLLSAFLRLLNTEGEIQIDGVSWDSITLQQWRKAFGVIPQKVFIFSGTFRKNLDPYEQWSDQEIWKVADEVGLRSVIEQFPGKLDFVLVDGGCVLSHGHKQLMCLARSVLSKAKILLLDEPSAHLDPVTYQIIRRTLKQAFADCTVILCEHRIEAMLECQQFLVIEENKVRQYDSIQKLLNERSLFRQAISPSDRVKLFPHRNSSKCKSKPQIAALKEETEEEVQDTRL
UniProt Q9UKV5: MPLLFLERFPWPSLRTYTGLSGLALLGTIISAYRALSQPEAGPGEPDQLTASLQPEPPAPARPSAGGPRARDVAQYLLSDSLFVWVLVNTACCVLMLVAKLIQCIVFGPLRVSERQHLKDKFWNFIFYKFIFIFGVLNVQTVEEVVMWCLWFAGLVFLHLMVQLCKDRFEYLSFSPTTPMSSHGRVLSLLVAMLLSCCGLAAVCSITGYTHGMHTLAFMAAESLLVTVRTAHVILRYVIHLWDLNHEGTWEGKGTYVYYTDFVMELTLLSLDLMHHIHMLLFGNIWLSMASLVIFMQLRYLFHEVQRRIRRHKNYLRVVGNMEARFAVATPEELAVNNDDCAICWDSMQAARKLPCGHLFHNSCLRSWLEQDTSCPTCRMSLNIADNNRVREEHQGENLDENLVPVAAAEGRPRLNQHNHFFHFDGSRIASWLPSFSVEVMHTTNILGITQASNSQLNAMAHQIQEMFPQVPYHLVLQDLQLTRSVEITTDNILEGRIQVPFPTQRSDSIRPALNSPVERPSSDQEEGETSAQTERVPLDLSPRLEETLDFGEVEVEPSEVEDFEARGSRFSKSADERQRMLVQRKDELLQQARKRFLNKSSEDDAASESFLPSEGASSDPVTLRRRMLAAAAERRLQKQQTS
UniProt Q86TM6: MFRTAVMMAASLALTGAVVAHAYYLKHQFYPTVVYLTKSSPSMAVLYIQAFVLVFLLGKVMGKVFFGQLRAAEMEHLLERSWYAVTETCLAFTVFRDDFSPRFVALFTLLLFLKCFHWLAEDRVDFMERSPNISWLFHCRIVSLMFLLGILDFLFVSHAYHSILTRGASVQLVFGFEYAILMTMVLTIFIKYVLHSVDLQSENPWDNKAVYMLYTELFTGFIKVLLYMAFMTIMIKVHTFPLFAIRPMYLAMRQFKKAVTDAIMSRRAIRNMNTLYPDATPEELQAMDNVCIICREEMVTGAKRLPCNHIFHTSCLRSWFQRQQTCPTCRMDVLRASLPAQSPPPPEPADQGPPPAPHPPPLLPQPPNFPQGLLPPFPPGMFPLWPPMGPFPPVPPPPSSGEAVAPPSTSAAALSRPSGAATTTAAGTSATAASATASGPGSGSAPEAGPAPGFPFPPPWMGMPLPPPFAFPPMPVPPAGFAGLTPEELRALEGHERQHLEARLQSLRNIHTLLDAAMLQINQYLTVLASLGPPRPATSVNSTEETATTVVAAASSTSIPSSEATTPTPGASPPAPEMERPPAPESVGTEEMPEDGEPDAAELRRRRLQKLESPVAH

Molecular target: HBH-ΔF508-CFTR-3HA (UniProt P13569)
Assay: pull-down

AMFR (Gp78), endogenous (from UniProt Q9UKV5 1-643) (enzyme)
binding: binds

Synoviolin 1 (SYVN1), endogenous (from UniProt Q86TM6 1-617) (enzyme)
binding: binds
